## Primary screen of a compound library

By UniProt entry, the sequences of proteins in these tests, tags left out. Residues count along the entry.
UniProt P9WFT3, whole entry: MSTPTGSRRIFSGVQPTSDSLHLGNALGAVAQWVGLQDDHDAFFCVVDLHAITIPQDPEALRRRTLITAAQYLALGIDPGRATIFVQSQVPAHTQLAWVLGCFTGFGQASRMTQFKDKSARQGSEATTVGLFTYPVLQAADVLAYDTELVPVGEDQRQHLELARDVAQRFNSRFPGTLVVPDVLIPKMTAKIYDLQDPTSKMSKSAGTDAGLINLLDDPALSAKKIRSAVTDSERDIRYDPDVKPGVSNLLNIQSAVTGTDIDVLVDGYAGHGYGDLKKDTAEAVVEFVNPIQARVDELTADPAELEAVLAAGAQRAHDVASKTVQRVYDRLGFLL
UniProt Q8IDJ8, 1-583: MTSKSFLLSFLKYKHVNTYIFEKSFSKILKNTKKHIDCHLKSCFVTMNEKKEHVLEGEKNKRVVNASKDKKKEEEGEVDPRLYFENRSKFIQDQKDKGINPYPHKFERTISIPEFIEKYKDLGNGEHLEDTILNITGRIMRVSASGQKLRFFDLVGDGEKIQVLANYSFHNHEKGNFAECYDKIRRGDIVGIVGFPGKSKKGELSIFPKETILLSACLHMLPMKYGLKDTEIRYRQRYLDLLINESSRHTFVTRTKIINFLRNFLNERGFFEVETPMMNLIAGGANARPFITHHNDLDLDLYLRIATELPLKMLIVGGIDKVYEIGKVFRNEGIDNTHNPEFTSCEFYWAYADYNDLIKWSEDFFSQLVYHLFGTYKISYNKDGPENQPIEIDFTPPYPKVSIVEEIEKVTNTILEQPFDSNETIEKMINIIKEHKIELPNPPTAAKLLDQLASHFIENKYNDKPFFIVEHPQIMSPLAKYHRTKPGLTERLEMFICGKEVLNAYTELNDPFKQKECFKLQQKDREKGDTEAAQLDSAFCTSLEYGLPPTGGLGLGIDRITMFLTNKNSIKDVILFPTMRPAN
UniProt P9WPC5, whole entry: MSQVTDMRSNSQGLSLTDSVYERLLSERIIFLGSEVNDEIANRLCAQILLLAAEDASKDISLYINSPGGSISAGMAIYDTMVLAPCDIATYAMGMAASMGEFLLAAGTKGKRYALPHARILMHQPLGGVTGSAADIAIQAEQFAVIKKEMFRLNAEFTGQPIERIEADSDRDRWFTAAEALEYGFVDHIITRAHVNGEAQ
UniProt P9WPC3, whole entry partner: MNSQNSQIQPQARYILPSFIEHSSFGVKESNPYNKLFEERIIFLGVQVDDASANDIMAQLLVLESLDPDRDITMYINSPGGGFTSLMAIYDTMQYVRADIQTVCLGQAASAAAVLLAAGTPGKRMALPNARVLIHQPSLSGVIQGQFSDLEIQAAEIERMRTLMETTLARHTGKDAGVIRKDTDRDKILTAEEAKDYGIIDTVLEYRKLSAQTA

Values are the deposited “Percent Effect”, in %.
The controls that fix the scale are not given in the record; negative values are as filed.
The compounds are a random part of those screened.

MtTrpRS: 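Tryptophan-tRNA ligase, Mycobacterium tuberculosis (UniProt P9WFT3). Enzyme assay of tryptophanyl-tRNA synthetase; the read-out is not stated. Compounds at 10 µM. Higher most likely means stronger inhibition; the record gives no direction and few retests gave an IC50. About 65,000 compounds were tested under these conditions; 0.098% (about 64) showed 50% or more at least once.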
PfKRS1: 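Lysine-tRNA ligase, Plasmodium falciparum 3D7 (UniProt Q8IDJ8). Enzyme assay of the cytosolic lysyl-tRNA synthetase in 384-well plates, read by luminescence. Compounds at 30 µM. Direction is inferred from only a few compounds that gave an IC50; most scored high, so higher reads as stronger inhibition. Size under these conditions: about 69,000 compounds, about 49 of them at 50% or above in at least one test.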
ClpP1P2: 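Protease assay of ClpP1P2, read by the AMC dye that it sets free. Target: ClpP1P2, Mycobacterium tuberculosis (UniProt P9WPC5 and UniProt P9WPC3). Compounds at 50 µM. Higher reads as stronger inhibition, judged from the few compounds that gave an IC50. Most other retested compounds had strongly negative values. Of about 69,000 compounds tested this way, about 10 (0.015%) reached 50% or more in at least one test.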

| Compound | MtTrpRS | PfKRS1 | ClpP1P2 |
|---|---|---|---|
| `Cc1noc(C)c1CNc1ccc2nc(C3CC3)sc2c1` | -0.374 | 3.198 | -4.053 |
| `CN(C)CCN1CCN(Cc2nccs2)Cc2cccnc21` | 2.269 | -0.6019 | -17.65 |
| `CN(C(=O)CNC(=O)CC(C)(C)C)C1CCN(c2ccccn2)CC1` | -0.3632 | 4.192 | 5.624 |
| `Cn1cc(CNCCc2cccnc2)c(-c2cccnc2)n1` | 4.298 | -2.93 | -4.09 |
| `CC(C)CNC(=O)c1cc2c(s1)CCN2Cc1cccnc1` | -5.567 | 3.755 | 4.005 |
| `CCC1(CC)Cc2ccccc2-c2nc(NCCO)[nH]c(=O)c21` | -3.708 | 2.078 | -38.12 |
| `CC(C)=CCN1C[C@@H](C(=O)O)C[C@H](C(=O)Nc2ccc(C)nc2)C1` | 7.204 | -0.4424 | 5.913 |
| `Cc1cccc(C(=O)NCc2ccccc2)n1` | 1.168 | 2.715 | -6.218 |
| `Cc1ccc(C(=O)N2CCC(c3noc(-c4cccnc4)n3)CC2)cn1` | -3.646 | 1.493 | -10.76 |
| `CN(Cc1nnc(C2CC2)n1C)C1CCN(CCc2ccncc2)C1` (configuration not stated) | -1.212 | 6.31 | -9.78 |
| `CN(Cc1cnn(C)c1)CC(O)c1ccc2c(c1)OCO2` (configuration not stated) | -1.725 | -0.4555 | -10.95 |
| `CN1CCN(c2cc(CNC(=O)c3cnccn3)ccn2)CC1` | -4.888 | 1.961 | -14.89 |
| `O=S(=O)(Cc1ccccc1)c1nnc(N2CCCC2)s1` | 2.517 | 3.136 | -6.775 |
| `CC(NC(=O)NCCS(C)(=O)=O)c1ccc2c(c1)CCC(=O)N2` (configuration not stated) | -8.557 | -0.1798 | 1.805 |
| `Cc1ccc(-c2noc(C(O)CC(C)C)n2)nn1` (configuration not stated) | 2.249 | 2.417 | -4.157 |
| `O=C(C1CC2(CCNCC2)CN1)N1CCN(c2ccccc2)CC1` (configuration not stated) | 2.981 | 2.317 | 3.024 |
| `COc1cc(NC(=O)c2cccc(N(C)C)c2)cc(OC)c1` | -22.04 | 1.782 | 8.95 |
| `CCCc1cc(NCc2ccc(CO)cc2)n2nccc2n1` | 0.5435 | 0.3684 | -8.141 |
| `COc1ccc(-n2cnnc2SCCC#N)cn1` | 4.44 | 5.473 | -12.64 |
| `Cc1occc1C(=O)N1CCC2(CC1)CC(c1cccnc1)C(=O)N2C` (configuration not stated) | -1.574 | 0.9967 | -7.705 |
| `COc1cc2c(cc1CNC(=O)C(C)n1ccnc1C(C)C)OCCO2` (configuration not stated) | -4.92 | -2.298 | -16.47 |
| `CCS(=O)(=O)NCC(=O)N1CC2(CCCC2)c2c(F)cccc21` | -2.27 | -0.0497 | -5.046 |
| `CC(=O)c1ccc(Cl)c(Cl)c1OCC(=O)NC(N)=O` | 7.78 | 7.201 | 1.09 |
| `CCOC(=O)C1CCN(C(=O)c2cc(F)ccc2-n2cnnn2)CC1` | 0.8223 | 1.974 | -2.864 |
| `CC[C@@H](Cn1ncc2ccccc2c1=O)NC(=O)c1cnc(C)cn1` | -5.355 | 1.545 | -7.937 |
| `O=S(=O)(Nc1ccc(N2CCOCC2)cc1)c1cccc(F)c1` | 5.942 | 9.373 | 8.933 |
| `Cc1csc2c(C3CCN(CCCOc4ccccc4)CC3)nc(C)n12` | 0.2639 | 2.363 | -14.45 |
| `Cn1cc(CNc2nc3cc(Cl)ccc3n2C)cn1` | -1.375 | 1.045 | -10.92 |
| `Cc1nc(CCNC(=O)N2CCC(Cc3cnn(C)c3)C2)cs1` (configuration not stated) | -3.072 | 5.305 | -5.068 |
| `CN(C)C(=O)[C@H]1C[C@@H]2CCN(C3CCOCC3)C[C@@H]2O1` | -0.6352 | 4.075 | -14.38 |
| `CN(C)c1ccc(C(=O)NCc2cccnc2-n2cncn2)cc1F` | 2.549 | 7.301 | -5.747 |
| `CCN(CC)C(=O)c1ccn(COc2ccc(F)cc2F)n1` | -4.275 | 5.694 | -11.6 |
| `COc1ccc(Cl)cc1NC(=O)CCC1CCCN(Cc2ncon2)C1` (configuration not stated) | 0.0849 | 1.019 | 9.962 |
| `Cc1cc(C)c(CNC(=O)N(C)Cc2cccc(F)c2)c(=O)[nH]1` | -2.18 | 0.3175 | -18.22 |
| `N#Cc1cccnc1Nc1ccc(N2CCC(C(N)=O)CC2)cc1` | -3.994 | 2.695 | -6.471 |
| `O=C(CNC1(CCO)CCOCC1)Nc1ccc(F)cc1F` | -1.961 | 4.871 | 0.6509 |
| `Cc1nc2c(C)cccc2cc1C(=O)N1CCC2(CCNCC2)CC1` | 1.088 | 5.142 | 11.45 |
| `Cc1ccccc1-c1cncc(C2CCN(C(=O)CN(C)C)CC2)n1` | -6.104 | -6.361 | 8.885 |
| `COc1cc(CN2CCC(COCc3ccccc3)CC2)cc(OC)c1` | 7.06 | 0.9753 | -3.295 |
| `COc1ccc(OC)c(CCNc2ncc(S(N)(=O)=O)s2)c1` | 4.253 | 5.312 | 3.535 |
| `CCN1C[C@H]2C3(CCN(S(=O)(=O)CC)CC3)CC[C@@]2(C(=O)N(C)C)C1` | -5.43 | 2.098 | -2.489 |
| `Cc1ccsc1-c1nc(CN(C)Cc2cc[nH]n2)c(C)o1` | -2.668 | -2.447 | 7.845 |
| `CC(C)NC1CCc2c(ccc(=O)n2CCN(C)C)C1` (configuration not stated) | 16.57 | -1.762 | 10.12 |
| `COc1ccc(C(C)C)cc1C1CC(=O)NCc2nc(N(C)C)sc21` (configuration not stated) | 11.97 | 4.832 | -5.922 |
| `Cc1nnc(CN(C)CCc2nc(-c3cccc(Cl)c3)no2)n1C` | -2.004 | 6.71 | -11.02 |
| `CNC(=O)NC1CC2(CCNCC2)c2ccc(C)cc21` (configuration not stated) | 7.541 | -4.544 | 12.1 |
| `Cc1noc(C)c1C(=O)N1CCCC(c2cc(C(F)(F)F)[nH]n2)C1` (configuration not stated) | 16.71 | -3.467 | -3.422 |
| `c1cncc(CN2CCC(c3ccc4c(c3)OCO4)CC2)c1` | 7.049 | -1.337 | 41.18 |
| `N#Cc1ccc(C(=O)NCC2(N3CCOCC3)CCCC2)nc1` | -2.167 | 7.072 | -10.48 |
| `COCCC1COC2(CCN(C(=O)c3ccsc3)CC2)C1` (configuration not stated) | 2.346 | -0.1791 | -2.85 |
| `COCCn1ccnc1C1CCCN(C(=O)CSc2nnc(C)o2)C1` (configuration not stated) | 3.265 | 8.133 | -6.317 |
| `CSc1nccc(N2CCC3(CCCN(Cc4cccc(C)c4)C3)C2)n1` (configuration not stated) | -1.769 | 6.576 | -10.62 |
| `O=C(c1cn(-c2ccccc2)nn1)N1CCCC(n2cccn2)C1` (configuration not stated) | -2.442 | 0.6029 | -24.97 |
| `NCCO[C@H]1C[C@@H](O)C12CCN(C(=O)COc1cccc(Cl)c1)CC2` | -0.4724 | 9.722 | -5.033 |
| `COCc1cn(CC2CCN(Cc3c(C)[nH]c4ccccc34)CC2)nn1` | -3.759 | 0.5356 | -14.94 |

For reference, 3 entries once more:

{"compound": "CC(=O)c1ccc(Cl)c(Cl)c1OCC(=O)NC(N)=O", "MtTrpRS": 7.78, "PfKRS1": 7.201, "ClpP1P2": 1.09}
{"compound": "CC(C)CNC(=O)c1cc2c(s1)CCN2Cc1cccnc1", "MtTrpRS": -5.567, "PfKRS1": 3.755, "ClpP1P2": 4.005}
{"compound": "O=S(=O)(Nc1ccc(N2CCOCC2)cc1)c1cccc(F)c1", "MtTrpRS": 5.942, "PfKRS1": 9.373, "ClpP1P2": 8.933}

The values are deposited in ChEMBL (CHEMBL3988442, “University of Dundee, Small-Polar-MMV Screening Library” (2021)).